Measurements: PubChem BioAssay AID901 (National Center for Advancing Translational Sciences (NCATS), 2007)
Some of the results follow. These are further read-outs of the screen, such as a control signal, another cell line or another target. No call is given for them. The list favours compounds with an active or inconclusive main result. Potencies come from curve fits of mixed quality, noted in brackets.

Experiment: qHTS Assay for Identifying the Cell-Membrane Permeable IMPase Inhibitors
Conditions: CHO-M1 cells, IP1 accumulation, HTRF TR-FRET ratio; measured here: donor channel 620 nm AC50

Compound | AC50
Cc1ccc2nc(SCC(=O)N3c4ccccc4CC3C)c(C)cc2c1 (stereo not drawn) | 31.6 µM [rising, single point]
O=C(COC(=O)c1cnccn1)NCCc1ccccc1 | 5.01 µM [falling, single point]
COc1ccc(C2=NC(=O)/C(=C\c3cc(OC)c(OC)c(OC)c3)O2)cc1 | 3.55 µM [falling, partial curve]
COc1ccc(CN2CCN(C(=O)c3ccco3)CC2)cc1OCc1ccccc1 | 0.00631 µM [rising, full curve, poor fit]
O=C(c1ccc(F)cc1)N1CCC(N2CCOCC2)CC1 | 0.0631 µM [rising, full curve, poor fit]
COc1ccc(NC(=O)c2c3c(nc4ccccc24)CCC3)cc1 | 0.0158 µM [falling, full curve, poor fit]
Cc1ccccc1N(C(=O)Cc1ccsc1)C(C(=O)NC1CCCCC1)c1ccc(F)cc1 (stereo not drawn) | 0.0501 µM [rising, partial curve, poor fit]
COc1cc(S(=O)(=O)N2CCOCC2)ccc1NC(=O)c1cc2c(s1)CCC2 | 3.16 µM [falling, full curve]
Cc1nc(NC(=O)c2cccc(-c3cc4ccccc4oc3=O)c2)ccc1Br | 3.98 µM [rising, full curve]
COc1ccc(C2CC(=O)Nc3sc(=N)c4c(N)c(C#N)c(N)nc4c32)cc1OC (stereo not drawn) | 31.6 µM [falling, single point]
O=C(CCCOc1ccc(Cl)cc1Cl)N/N=C/c1cccc([N+](=O)[O-])c1 | 1.26 µM [falling, full curve, poor fit]
Cc1ccc(-c2cnc(N)n2C)cc1C | 0.501 µM [falling, full curve, poor fit]
O=C(COC(=O)c1ccccc1SCC(=O)NC1CCCCC1)NC1CCCCC1 | 3.16 µM [rising, partial curve, poor fit]
CCOCCc1nnc(NC(=O)CN2C(=O)c3ccccc3C2=O)s1 | 15.8 µM [rising, single point]
Cc1ccccc1C(=O)Nc1ccc2oc(-c3ccc(Cl)c(Cl)c3)nc2c1 | 11.2 µM [rising, partial curve]
C/C(=N\NC(=O)C(=O)Nc1cccc(C(F)(F)F)c1)c1ccc(Cl)s1 | 3.98 µM [rising, partial curve, poor fit]
COC(=O)c1[nH]c2ccc(Cl)cc2c1NC(=O)CN1CCc2cc(OC)c(OC)cc2C1 | 7.94 µM [falling, partial curve, poor fit]
OC(CNc1ccccc1)COc1ccc(OCC(O)CNc2ccccc2)cc1 (stereo not drawn) | 1 µM [rising, full curve]

Rewritten as a markdown table: 2 of the compounds above

| Compound | AC50 |
| --- | --- |
| Cc1ccccc1N(C(=O)Cc1ccsc1)C(C(=O)NC1CCCCC1)c1ccc(F)cc1 (stereo not drawn) | 0.0501 µM [rising, partial curve, poor fit] |
| COc1cc(S(=O)(=O)N2CCOCC2)ccc1NC(=O)c1cc2c(s1)CCC2 | 3.16 µM [falling, full curve] |
